Results are percentages, as filed. The record does not define 0% and 100%; most values in the screen are far below 50% and negative numbers occur (in some assays of this library far below -100). This is an unselected part of the compounds tested.

Chains of the proteins cited; added tags and fusions are not shown.
UniProt E9BF75, entry or part of it: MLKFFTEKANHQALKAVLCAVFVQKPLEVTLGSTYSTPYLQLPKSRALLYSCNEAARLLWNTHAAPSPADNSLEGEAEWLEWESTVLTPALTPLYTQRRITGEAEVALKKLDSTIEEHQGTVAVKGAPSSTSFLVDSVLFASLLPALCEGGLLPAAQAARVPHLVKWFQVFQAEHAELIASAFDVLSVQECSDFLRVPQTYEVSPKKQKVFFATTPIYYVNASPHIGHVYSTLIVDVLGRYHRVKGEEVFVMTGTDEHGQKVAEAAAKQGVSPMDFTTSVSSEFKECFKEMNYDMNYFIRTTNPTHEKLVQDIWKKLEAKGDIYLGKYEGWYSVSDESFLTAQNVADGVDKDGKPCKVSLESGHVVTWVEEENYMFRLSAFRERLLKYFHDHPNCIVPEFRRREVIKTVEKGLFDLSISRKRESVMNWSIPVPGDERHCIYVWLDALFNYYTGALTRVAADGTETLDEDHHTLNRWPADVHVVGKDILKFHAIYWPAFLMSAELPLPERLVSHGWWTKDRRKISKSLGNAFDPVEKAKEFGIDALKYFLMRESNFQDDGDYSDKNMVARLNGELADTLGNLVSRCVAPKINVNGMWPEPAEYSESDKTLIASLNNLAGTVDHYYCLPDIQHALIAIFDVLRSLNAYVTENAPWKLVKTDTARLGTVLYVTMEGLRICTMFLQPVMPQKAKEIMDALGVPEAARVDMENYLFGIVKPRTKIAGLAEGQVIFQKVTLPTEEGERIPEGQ

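Methionyl-tRNA synthetase (putative), Leishmania donovani (UniProt E9BF75). Primary screen of methionyl-tRNA synthetase; the read-out is not stated. The test concentration is not given. The values are filed as inhibition. Of about 68,000 compounds tested this way, about 24 (0.035%) reached 50% or more in at least one test.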

CCc1nccn1C1CCCN(C(=O)c2cnc3ccccc3n2)C1 (configuration not stated) read 11.97%.
Cn1ccc(CN2CCN(CC3CC3)CC2)cc1=O read 8.743%.
CCC(=O)N1CSCC1C(=O)Nc1ccccc1-c1cccs1 (configuration not stated) read 13.12%.
CCS(=O)(=O)N1CCC2(CC1)CC(Oc1ccccn1)CO2 (configuration not stated) read 17.65%.
CN(C)c1cc(CNC(=O)Nc2ccc(C#N)cc2)ccn1 read 18.7%.
CCc1nc(C2CCCN(c3ncccn3)C2)no1 (configuration not stated) read 3.308%.
CCC(SC)C(=O)N1CCC(n2cccn2)CC1 (configuration not stated) read 9.253%.
CN1[C@H](CN2CCCC2)C[C@@H]2CN(Cc3ccoc3)CC[C@@H]21 read 7.246%.
COC(CNC(=O)c1cc(C)on1)c1ccccc1C (configuration not stated) read 0.6211%.
CNC(=O)c1cc2c(nc1NCC(C)C)CCN(C)CC2 read 5.155%.
CCc1nnc(C(C)N2CCc3cncnc3C2)o1 (configuration not stated) read 13.7%.
CC1CCN(C(=O)C2CCN(c3ccc(Cl)cc3C#N)CC2)CC1 read 13.19%.
CCn1c(C(=O)N2CCN(CC[S+](C)[O-])CC2)cc2ccccc21 (configuration not stated) read 14.77%.
CCCn1cc(NC(=O)c2ccc(S(C)(=O)=O)cc2)ccc1=O read -2.957%.
CC(C)c1cc2c(O)nc(CSCC(=O)NCc3ccccn3)nc2s1 read -1.299%.
CC(C)(C)n1cc(CNC2CCN(C(=O)c3ccncc3)CC2)cn1 read 9.524%.
CC(=O)NC(C)c1ccc(OCC2CC2)c(F)c1 (configuration not stated) read 19.01%.
Cc1ccoc1C(=O)N1CC[C@H]2O[C@@H](C)C[C@H]2C1 read 16.32%.
CCN(C(=O)NCc1ncc(C)c(OC)c1C)C(C)c1cccnc1 (configuration not stated) read 14.08%.
CC(C)c1ncc2c(n1)CN(CCCc1nc3ccccc3o1)CC2 read 27.11%.
Cc1cc(C)n(CC2CN(Cc3nc(-c4ccco4)no3)CCO2)n1 (configuration not stated) read 17.77%.
COCCOc1ccc(-c2noc([C@@H]3CCCN3C3CCC3)n2)cn1 read 7.797%.
Cn1cc(C2CCCN2C(=O)c2cnc(-c3cccs3)s2)cn1 (configuration not stated) read 19.2%.
CCn1cc(S(=O)(=O)NC2(CN3CCOCC3)CCCCC2)c(C)n1 read 12.26%.
CCc1nc(C2CCCN2CC(=O)N2CCCc3ccccc32)no1 (configuration not stated) read 21.79%.
Cc1cc(CN(C)C2CCCN(Cc3noc(C4CC4)n3)C2)no1 (configuration not stated) read 0%.
COC(=O)CCn1ccc(=O)c2ccc(OC)cc21 read 12.71%.
O=C(NCCn1nc(C2CCNC2)c2cccnc21)C1CC1 (configuration not stated) read 7.812%.
Cc1n[nH]c2nc(-c3cccc(Cl)c3)cc(C(=O)O)c12 read 17%.
O=C1CC(c2ccncc2)c2c(sc3c2CCCC3)N1 (configuration not stated) read 16.32%.
CCCn1ccnc1CN1CCCC(CC)(CO)C1 (configuration not stated) read -2.09%.
O=C(CN1C(=O)CCC1=O)NCC1(O)CCc2ccccc21 (configuration not stated) read 16.21%.
c1c(CN2CCCCC2)nc2n1CCN(CC1CC1)C2 read 5.155%.
COc1ncc(-c2c(C#N)c(N)nc3c2CCc2[nH]ccc2-3)cn1 read 20.56%.
CSCCC(C)(O)CNC(=O)Nc1ccccc1C (configuration not stated) read 11.51%.
CCc1nccn1C1CCCN(C(=O)c2cc[nH]n2)C1 (configuration not stated) read 8.355%.
CC(=O)N(Cc1noc(C)n1)C1CCN(Cc2ccccn2)C1 (configuration not stated) read 20.22%.
O=C(c1ccnnc1)N1CCO[C@H]2[C@@H](OCc3cccnc3)CC[C@@H]21 read 15.56%.
CSCCC1CC(=O)Nc2cc(O)c(C)cc21 (configuration not stated) read 6.272%.
O=C(NCC1CCS(=O)(=O)C1)c1ccc2cccc(Cl)c2n1 (configuration not stated) read -0.4963%.
Fc1ccc(-c2nnc(CN3CCOC(Cn4cncn4)C3)o2)cc1 (configuration not stated) read 1.215%.
Cc1ncsc1C(=O)NCc1cc2n(n1)CCN(C(=O)N(C)C)C2 read 8.065%.
CC(C(=O)N1CCc2ccccc21)N1CCc2cncnc2C1 (configuration not stated) read 16.94%.
CC(C)CCN1CCC2(CC1)NCc1ccccc1NC2=O read 8.571%.
COc1cccc(CC(C)NC(=O)NCCNC(C)=O)c1 (configuration not stated) read 7.483%.

The first 5 entries again:

compound	inhibition
CCc1nccn1C1CCCN(C(=O)c2cnc3ccccc3n2)C1 (configuration not stated)	11.97
Cn1ccc(CN2CCN(CC3CC3)CC2)cc1=O	8.743
CCC(=O)N1CSCC1C(=O)Nc1ccccc1-c1cccs1 (configuration not stated)	13.12
CCS(=O)(=O)N1CCC2(CC1)CC(Oc1ccccn1)CO2 (configuration not stated)	17.65
CN(C)c1cc(CNC(=O)Nc2ccc(C#N)cc2)ccn1	18.7

From ChEMBL document CHEMBL3988442, “University of Dundee, Small-Polar-MMV Screening Library” (2021).